Test results taken from PubChem BioAssay AID1347075 (National Center for Advancing Translational Sciences (NCATS), 2019).
Where “and” joins values, the source holds several entries; their conditions need not be identical. Identical values can stand only once. The whole screen tested about 400,000 compounds, of which about 5,500 (1.4%) were called active. Inconclusive results, whose numbers are uncertain, are shown with a selection of clear calls. Calls come from the whole dose curve; as a rule, active = well fitted cell-killing curve with a large enough effect; inconclusive = small, poorly fitted or top-dose-only effect, or effect the other way; inactive = flat fitted curve, though single readings scatter. Potencies beside an inconclusive call are fits to weak or partial responses and may not hold up.

Test: qHTS assay for MDR1-selective chemotherapeutics: Primary screen using the parental adenocarcinoma cell KB-3-1; note: nearly all actives have a fitted effect of over 60% in size
Conditions: KB-3-1 viability, CellTiter-Glo ATP luminescence, 72 h; activity change, negative = cytotoxic: at 46.1 µM (top of the series)
Outline: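 KB-3-1 cells, DMEM (no phenol red) + 10% FBS; compound by pin transfer, 72 h, 37 °C. Readout: CellTiter-Glo luminescence after 10 min. Data normalized, curve-fitted.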
% is set by controls: 0 for no effect and ±100 for the full control effect; potency is the fitted concentration of half-maximal effect.

SMILES | Potency | activity change, negative = cytotoxic
Cc1ccc(Nc2nc(N)nc(CCl)n2)c(C)c1 | inconclusive: 18.4 µM [cytotoxic, single point] | 
O=C(Cc1ccc(-c2ccccc2)cc1)NO | inconclusive: 16.4 µM [cytotoxic, partial curve, poor fit] | 
O=C(Nc1cccc(F)c1)C1CCN(c2nnnn2-c2ccccc2)CC1 | inconclusive: 25.9 µM [cytotoxic, single point] | 
Fc1ccc(-c2nc3c(Cl)cc(C(F)(F)F)cn3c2Cc2cccc(Cl)c2)cc1 | active: 23.1 µM | 
CCCN(CCC)CCCNC(=O)c1cc2c(=O)n(C)c3ccccc3c2n1C | inconclusive: 32.6 µM [cytotoxic, single point] | 
Fc1ccc(-c2cn3ccccc3n2)cc1 | inconclusive: 25.9 µM [cytotoxic, partial curve, poor fit] | 
O=C(Nc1ccc(Oc2ccccc2)cc1)Nc1nnc(-c2ccncc2)s1 | inconclusive: 3.26 µM [cytotoxic, partial curve, poor fit] | 
COc1ccc(C(=O)N2CCN(C(=O)c3ccco3)CC2)cc1 |  | inactive: -0.641%
CCOc1ccc(OCCCC(=O)N2CCN(S(=O)(=O)c3ccc(Cl)cc3)CC2)cc1 |  | inactive: -4.63%
C[N+]1(C)CCC(OC(=O)C(O)(c2ccccc2)C2CCCC2)C1 (stereo unspecified) |  | inconclusive: 0%
Cc1c2ccncc2cc2c1[nH]c1ccccc12 | inconclusive: 29.1 µM [cytotoxic, single point] | 
CN1CCc2c(sc(NC(=O)C3CCCN3S(=O)(=O)c3ccc(Cl)s3)c2C(N)=O)C1 (stereo unspecified) |  | inactive: 1.26%
C=C1C=C(C(F)F)n2ncc(C(=O)N3CCCCC3)c2N1 | inconclusive: 2.59 µM [rising, single point] | 
Cc1cccc(C(=O)NC(=S)Nc2ccccc2C(F)(F)F)c1 |  | inactive: -0.231%
CC(C)CCC(=O)N1CCOC1=O | inconclusive: 36.6 µM [rising, single point] | 
Cc1ccc2c(c1)N=C(c1ccccc1)CC(C(Cl)Cl)=N2 | inconclusive: 29.1 µM [cytotoxic, single point] | 
CC1=C(C#N)C(c2cn(-c3ccccc3)nc2-c2cccs2)C(C#N)=C(C)N1 | inconclusive: 25.9 µM [cytotoxic, partial curve, poor fit] | 
C[C@@H](c1ccccc1)N1Cc2ccccc2Oc2cc(Br)ccc2S1(=O)=O | inconclusive: 20.6 µM [cytotoxic, single point] | 
CCNC(=O)C1(C)CCCN(Cc2csc(-c3ccc(Cl)cc3)n2)C1 (stereo unspecified) |  | inconclusive: -6.72%
Cc1ccccc1-c1nnc2c3ccccc3c(C)nn12 | inconclusive: 18.4 µM [cytotoxic, single point] | 
COc1ccc(-c2noc(-c3ccoc3C)n2)cc1 | inconclusive: 29.1 µM [cytotoxic, single point] | 
Cc1ccc(-c2nnc(Nc3ccc(O)cc3)c3ccccc23)cc1S(=O)(=O)N1CCOCC1 |  | inconclusive: -53.5%

SMILES | Potency | activity change, negative = cytotoxic
O=[N+]([O-])c1cc(C(F)(F)F)ccc1NC1CCN(Cc2ccccc2)C1 (stereo unspecified) | inconclusive: 0.0103 µM [rising, full curve] | 
O=C(NCCc1ccc(S(=O)(=O)N2CCCC2)cc1)c1cccs1 | inconclusive: 2.91 µM [cytotoxic, partial curve, poor fit] | 
Cc1ccc(NC(=O)C(C)OC(=O)COc2cccc(C(F)(F)F)c2)cc1S(=O)(=O)N1CCOCC1 (stereo unspecified) |  | inconclusive: -33.1% [cytotoxic]
Cc1cc(Cl)c(OCCOCCN2CCC(C)CC2)c(Br)c1 | inconclusive: 14.6 µM [cytotoxic, partial curve] | 
COc1cccc(NS(=O)(=O)c2ccc(-c3cc(C)no3)s2)c1 |  | inactive: 0%
O=C(N/N=C/c1ccc([N+](=O)[O-])cc1)c1ccc2nc[nH]c2c1 | inconclusive: 29.1 µM [cytotoxic, single point] | 
COc1ccc(/C=N/NC(=O)C(Cc2c[nH]c3ccccc23)NC(=O)OCC(C)C)cc1[N+](=O)[O-] (stereo unspecified) |  | inactive: 0%
O=C1C(O)CC2c3ccccc3CC3(CCCC3)N12 (stereo unspecified) |  | inactive: 3.57%
CCCCn1c2ccc(F)cc2c2nnc(NN)nc21 |  | inactive: 1.32%
CN(C(=O)CSc1cn(CC(=O)N2CCOCC2)c2ccccc12)c1ccccc1 | inconclusive: 32.6 µM [rising, single point] | 
Cc1c(Cl)cccc1N/C(=N/S(=O)(=O)c1cccs1)c1ccccc1 | inconclusive: 23.1 µM [cytotoxic, single point] | 
CCN(CC)c1ccc(NC(=O)CSc2nc(C3CC3)nc3ccccc23)cc1C | active: 4.61 µM | 
Cc1cccc(NC(=O)c2cc(-c3cc(C)cc(C)c3O)n[nH]2)c1 | inconclusive: 29.1 µM [cytotoxic, single point] | 
O=c1cc(CN2CCN(CCO)CC2)c2cc3c(cc2o1)CCC3 |  | inactive: -0.102%
CCCN(C(=O)c1noc2c1COc1ccc(C)cc1-2)c1ccc(Cl)c(Cl)c1 |  | inactive: 1.43%
COCCNC(=S)Nc1cc(OC)c(NC(=O)c2ccco2)cc1OC | inconclusive: 18.4 µM [rising, single point] | 
CCOC(=O)c1ccccc1NC(=O)C1CCN(c2ncnc3sc(C)c(C)c23)CC1 | inconclusive: 14.6 µM [cytotoxic, partial curve] | 
NC(=O)c1ccc2c(c1)S(=O)(=O)c1ccccc1C2=O | inconclusive: 18.4 µM [cytotoxic, partial curve, poor fit] | 
Cc1ccc2c(CC(=O)Nc3ccc(N4CCN(C)CC4)cc3C)coc2c1 | inconclusive: 29.1 µM [cytotoxic, single point] | 
COC(=O)[C@]12CCCCC=C1N(CCc1ccc(OC)c(OC)c1)C(=O)[C@H](CC(=O)NCc1ccccc1)C2 |  | inactive: 0.572%
COCCN1C(=O)c2[nH]nc(-c3cc(C)ccc3O)c2C1c1ccc(C(C)C)cc1 (stereo unspecified) | inconclusive: 16.4 µM [cytotoxic, single point] | 
COc1ccccc1OCCOc1ccc(/C=C2\C(=N)N3N=C(C)SC3=NC2=O)cc1 | inconclusive: 13 µM [rising, partial curve, poor fit] | 

SMILES | Potency | activity change, negative = cytotoxic
C/C(CC(=O)Nc1cc(Cl)ccc1Cl)=N\NC(N)=S | inconclusive: 16.4 µM [rising, partial curve, poor fit] | 
CC(Nc1nc(-c2ccc(F)cc2)cs1)c1nc2cc(Cl)c(N3CCCCC3)cc2n1CCOCCO (stereo unspecified) | inconclusive: 29.1 µM [cytotoxic, single point] | 
Cc1cccc(C)c1-n1ncc(C(=O)N2CCN(c3ccccc3)CC2)c1C1CCN(C(=O)OC(C)(C)C)CC1 | inconclusive: 29.1 µM [cytotoxic, single point] | 
CCc1nnc(NC(=O)CSc2nnc(-c3ccoc3C)n2-c2ccc(C)cc2)s1 | inconclusive: 0.708 µM [rising, partial curve, poor fit] | 
Cc1cccn2cc(CSc3nnc(Nc4ccc(C(C)C)cc4)s3)nc12 | inconclusive: 0.92 µM [rising, full curve] | 
Cc1cncn1CCc1nc2c3ccccc3nc(SCC(=O)Nc3cccc(Cl)c3)n2n1 | inconclusive: 29.1 µM [cytotoxic, single point] and inconclusive: 20.6 µM [cytotoxic, single point] | 
Cc1ccc(NC(=O)CN2C(=O)NC(Cc3c[nH]c4ccccc34)C2=O)cc1S(=O)(=O)N1CCCCC1 (stereo unspecified) | inconclusive: 20.6 µM [cytotoxic, single point] | 
CC(=O)c1cc2c(cc1NC(=O)CN1CCCCCCC1)OCO2 | inconclusive: 29.1 µM [cytotoxic, single point] | 
CC(Oc1ccc(Br)cc1Cl)C(=O)Nc1ccncc1 (stereo unspecified) | inconclusive: 0.92 µM [cytotoxic, full curve, poor fit] | 
COc1ccc(C2=Nn3c(nnc3-c3ccccc3OC)SC2)cc1OC | active: 2.31 µM and active: 13 nM | 
CCC(c1nnnn1Cc1ccccc1)N(Cc1ccco1)Cc1cc2cc(OC)ccc2[nH]c1=O (stereo unspecified) | inconclusive: 29.1 µM [cytotoxic, single point] | 
CCOc1cc2c(cc1O)C(=NOC)CC1C2CCC2(C)C(O)CCC12 (stereo unspecified) | active: 0.651 µM | 
N#CCn1cc(/C=N/NC(=O)c2cc3c(ccc4ccccc43)o2)c2ccccc21 | inconclusive: 29.1 µM [cytotoxic, single point] | 
O=[N+]([O-])c1ccc(N/N=C/c2c[nH]c3ccccc23)c(S(=O)(=O)Nc2ccc(Cl)cc2)c1 | inconclusive: 29.1 µM [cytotoxic, single point] | 
O=C(O)c1cc(-c2ccc3ccccc3c2)nc2ccc(F)cc12 | inconclusive: 29.1 µM [cytotoxic, single point] | 
Cc1ccc(OCc2nc3ccccc3n2CCOc2ccc(Cl)cc2)cc1 | inconclusive: 29.1 µM [cytotoxic, single point] | 
COc1cccc(NC(=O)CN(C)C(=O)/C=C/c2cn(-c3ccccc3)nc2-c2cccs2)c1 | inconclusive: 29.1 µM [cytotoxic, single point] | 
COc1ccc([C@@H]2C[C@@H](c3ccccc3)Oc3cc(OC)c(OC)c(OC)c32)cc1 |  | inactive: 9.39%
Cc1cccc(NC(=O)COC(=O)Cc2cccc(C(F)(F)F)c2)c1C | inconclusive: 29.1 µM [rising, single point] | 
CC(C)c1ccc(NC(=O)Cn2c(=O)n(CCc3ccccc3)c(=O)c3ccccc32)cc1 |  | inactive: 2.38%
O=C(CCS(=O)(=O)c1ccc(F)cc1)N1CCOCC1 |  | inactive: 4.31%
COc1ccccc1NS(=O)(=O)c1cccc(C(=O)N/N=C(\C)c2ccc3c(c2)OCCO3)c1 |  | inconclusive: -1.57%
